Results from paper doi:10.1101/2024.09.15.613155.
Results are given in words; binding and its absence hold for the method and conditions named. In cells and extracts the contact can be indirect. Some entries that bind do so weakly or less than the wild type.

Chains of the proteins cited; added tags and fusions are not shown.
UniProt Q7TMY8: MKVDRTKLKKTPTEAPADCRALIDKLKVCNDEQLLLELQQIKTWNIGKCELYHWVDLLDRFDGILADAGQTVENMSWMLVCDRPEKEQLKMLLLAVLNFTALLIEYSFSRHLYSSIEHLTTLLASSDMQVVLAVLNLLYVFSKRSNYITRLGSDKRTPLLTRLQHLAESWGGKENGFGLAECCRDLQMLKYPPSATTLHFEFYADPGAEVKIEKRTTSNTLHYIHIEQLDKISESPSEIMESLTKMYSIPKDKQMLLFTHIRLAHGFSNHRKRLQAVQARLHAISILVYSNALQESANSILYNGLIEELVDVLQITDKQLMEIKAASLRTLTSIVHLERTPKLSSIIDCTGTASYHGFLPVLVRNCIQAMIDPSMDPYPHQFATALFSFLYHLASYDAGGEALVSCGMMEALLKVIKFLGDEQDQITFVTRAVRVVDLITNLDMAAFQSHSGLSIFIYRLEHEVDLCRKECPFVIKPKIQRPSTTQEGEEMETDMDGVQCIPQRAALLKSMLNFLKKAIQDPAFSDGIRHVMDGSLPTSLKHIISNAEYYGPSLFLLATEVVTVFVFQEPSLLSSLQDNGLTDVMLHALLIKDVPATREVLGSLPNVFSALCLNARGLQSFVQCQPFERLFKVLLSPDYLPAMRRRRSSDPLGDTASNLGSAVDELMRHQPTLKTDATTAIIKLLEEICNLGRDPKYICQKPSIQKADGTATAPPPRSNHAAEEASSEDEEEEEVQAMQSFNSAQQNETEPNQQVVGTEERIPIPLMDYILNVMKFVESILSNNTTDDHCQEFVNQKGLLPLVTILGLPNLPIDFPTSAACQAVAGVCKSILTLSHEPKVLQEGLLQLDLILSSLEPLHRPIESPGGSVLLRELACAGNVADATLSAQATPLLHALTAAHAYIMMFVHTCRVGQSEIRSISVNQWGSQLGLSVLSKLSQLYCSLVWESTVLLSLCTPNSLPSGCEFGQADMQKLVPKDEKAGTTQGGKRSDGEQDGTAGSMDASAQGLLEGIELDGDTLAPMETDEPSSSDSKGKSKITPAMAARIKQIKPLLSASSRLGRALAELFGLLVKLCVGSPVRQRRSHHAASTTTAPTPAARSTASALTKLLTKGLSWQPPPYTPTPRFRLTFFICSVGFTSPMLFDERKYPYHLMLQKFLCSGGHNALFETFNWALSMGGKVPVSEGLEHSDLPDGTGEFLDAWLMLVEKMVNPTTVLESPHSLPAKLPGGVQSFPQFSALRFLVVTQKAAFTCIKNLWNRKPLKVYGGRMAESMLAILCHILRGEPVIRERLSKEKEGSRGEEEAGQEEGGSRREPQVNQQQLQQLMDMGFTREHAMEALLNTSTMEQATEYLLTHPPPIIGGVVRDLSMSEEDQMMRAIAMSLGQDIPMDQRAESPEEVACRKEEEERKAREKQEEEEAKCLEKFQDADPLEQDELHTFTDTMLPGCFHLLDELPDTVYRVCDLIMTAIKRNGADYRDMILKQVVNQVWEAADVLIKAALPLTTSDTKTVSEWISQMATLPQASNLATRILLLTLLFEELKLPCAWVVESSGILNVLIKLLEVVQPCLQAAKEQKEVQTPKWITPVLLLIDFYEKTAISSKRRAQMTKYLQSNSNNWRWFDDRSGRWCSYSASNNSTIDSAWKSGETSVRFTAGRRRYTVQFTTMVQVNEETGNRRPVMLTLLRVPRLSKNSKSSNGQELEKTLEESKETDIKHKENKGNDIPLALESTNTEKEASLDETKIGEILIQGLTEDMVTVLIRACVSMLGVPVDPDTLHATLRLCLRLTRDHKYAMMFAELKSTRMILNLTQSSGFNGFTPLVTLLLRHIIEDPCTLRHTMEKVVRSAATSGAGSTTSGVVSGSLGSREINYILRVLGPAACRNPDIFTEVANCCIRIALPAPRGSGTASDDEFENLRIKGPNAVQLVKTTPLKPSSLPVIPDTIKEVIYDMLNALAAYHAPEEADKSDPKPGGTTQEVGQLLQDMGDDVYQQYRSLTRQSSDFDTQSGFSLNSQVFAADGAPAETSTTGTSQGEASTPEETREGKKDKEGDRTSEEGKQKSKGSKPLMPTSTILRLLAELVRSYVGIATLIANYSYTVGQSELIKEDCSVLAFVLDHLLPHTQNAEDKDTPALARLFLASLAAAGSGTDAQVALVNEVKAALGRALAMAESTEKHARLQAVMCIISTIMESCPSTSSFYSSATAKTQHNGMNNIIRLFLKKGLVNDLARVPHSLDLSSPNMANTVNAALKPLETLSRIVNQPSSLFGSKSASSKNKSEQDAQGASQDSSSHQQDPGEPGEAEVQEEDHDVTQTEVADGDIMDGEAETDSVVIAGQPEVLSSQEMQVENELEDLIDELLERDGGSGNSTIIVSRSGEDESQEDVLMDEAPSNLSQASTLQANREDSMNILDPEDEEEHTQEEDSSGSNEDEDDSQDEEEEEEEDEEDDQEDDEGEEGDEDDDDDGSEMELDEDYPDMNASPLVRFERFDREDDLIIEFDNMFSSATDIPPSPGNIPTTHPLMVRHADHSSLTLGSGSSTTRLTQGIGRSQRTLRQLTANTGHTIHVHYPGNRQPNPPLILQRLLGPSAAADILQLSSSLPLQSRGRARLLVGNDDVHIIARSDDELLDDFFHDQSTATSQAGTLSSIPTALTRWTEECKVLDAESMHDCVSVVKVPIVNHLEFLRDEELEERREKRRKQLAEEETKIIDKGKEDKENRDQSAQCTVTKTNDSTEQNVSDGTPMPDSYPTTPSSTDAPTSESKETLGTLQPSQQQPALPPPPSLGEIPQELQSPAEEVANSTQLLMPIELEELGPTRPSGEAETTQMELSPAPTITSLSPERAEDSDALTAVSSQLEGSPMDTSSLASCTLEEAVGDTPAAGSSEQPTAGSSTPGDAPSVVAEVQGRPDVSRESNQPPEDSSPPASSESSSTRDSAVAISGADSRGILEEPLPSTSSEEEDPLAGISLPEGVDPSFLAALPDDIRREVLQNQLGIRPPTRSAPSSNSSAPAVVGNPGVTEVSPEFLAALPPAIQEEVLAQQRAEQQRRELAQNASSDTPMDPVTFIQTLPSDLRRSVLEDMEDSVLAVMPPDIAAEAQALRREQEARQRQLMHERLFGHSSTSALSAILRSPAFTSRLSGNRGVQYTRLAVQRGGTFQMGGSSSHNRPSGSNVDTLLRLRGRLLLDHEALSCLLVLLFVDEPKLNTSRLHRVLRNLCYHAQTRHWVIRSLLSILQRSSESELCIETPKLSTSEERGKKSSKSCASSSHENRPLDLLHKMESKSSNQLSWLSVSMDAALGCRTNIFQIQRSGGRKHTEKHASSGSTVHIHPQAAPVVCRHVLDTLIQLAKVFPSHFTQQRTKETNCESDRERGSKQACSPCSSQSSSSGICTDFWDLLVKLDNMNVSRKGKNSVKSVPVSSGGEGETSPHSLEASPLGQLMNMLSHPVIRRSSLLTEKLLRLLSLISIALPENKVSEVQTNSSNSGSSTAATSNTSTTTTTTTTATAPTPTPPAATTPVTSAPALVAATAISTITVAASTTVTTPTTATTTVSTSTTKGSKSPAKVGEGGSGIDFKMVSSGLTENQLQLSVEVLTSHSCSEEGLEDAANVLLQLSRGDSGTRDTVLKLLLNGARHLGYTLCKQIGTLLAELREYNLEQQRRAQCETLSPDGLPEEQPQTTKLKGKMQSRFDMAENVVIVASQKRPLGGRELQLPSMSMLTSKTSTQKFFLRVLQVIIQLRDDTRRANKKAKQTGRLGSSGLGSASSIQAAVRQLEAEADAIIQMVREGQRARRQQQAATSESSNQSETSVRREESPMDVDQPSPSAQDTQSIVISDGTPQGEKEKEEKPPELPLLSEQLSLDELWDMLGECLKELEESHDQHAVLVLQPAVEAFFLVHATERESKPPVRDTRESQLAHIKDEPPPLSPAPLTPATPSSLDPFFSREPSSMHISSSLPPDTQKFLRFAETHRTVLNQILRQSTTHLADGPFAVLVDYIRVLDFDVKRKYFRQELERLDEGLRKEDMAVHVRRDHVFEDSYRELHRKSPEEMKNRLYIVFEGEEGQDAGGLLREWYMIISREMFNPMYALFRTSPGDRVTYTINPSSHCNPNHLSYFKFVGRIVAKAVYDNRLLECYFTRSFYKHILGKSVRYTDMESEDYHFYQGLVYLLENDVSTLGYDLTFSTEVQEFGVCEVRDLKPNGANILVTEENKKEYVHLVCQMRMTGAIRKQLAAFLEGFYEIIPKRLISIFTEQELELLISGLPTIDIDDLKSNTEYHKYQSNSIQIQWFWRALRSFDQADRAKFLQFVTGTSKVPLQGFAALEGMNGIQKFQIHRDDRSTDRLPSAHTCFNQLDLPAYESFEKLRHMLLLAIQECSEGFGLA
UniProt P11103: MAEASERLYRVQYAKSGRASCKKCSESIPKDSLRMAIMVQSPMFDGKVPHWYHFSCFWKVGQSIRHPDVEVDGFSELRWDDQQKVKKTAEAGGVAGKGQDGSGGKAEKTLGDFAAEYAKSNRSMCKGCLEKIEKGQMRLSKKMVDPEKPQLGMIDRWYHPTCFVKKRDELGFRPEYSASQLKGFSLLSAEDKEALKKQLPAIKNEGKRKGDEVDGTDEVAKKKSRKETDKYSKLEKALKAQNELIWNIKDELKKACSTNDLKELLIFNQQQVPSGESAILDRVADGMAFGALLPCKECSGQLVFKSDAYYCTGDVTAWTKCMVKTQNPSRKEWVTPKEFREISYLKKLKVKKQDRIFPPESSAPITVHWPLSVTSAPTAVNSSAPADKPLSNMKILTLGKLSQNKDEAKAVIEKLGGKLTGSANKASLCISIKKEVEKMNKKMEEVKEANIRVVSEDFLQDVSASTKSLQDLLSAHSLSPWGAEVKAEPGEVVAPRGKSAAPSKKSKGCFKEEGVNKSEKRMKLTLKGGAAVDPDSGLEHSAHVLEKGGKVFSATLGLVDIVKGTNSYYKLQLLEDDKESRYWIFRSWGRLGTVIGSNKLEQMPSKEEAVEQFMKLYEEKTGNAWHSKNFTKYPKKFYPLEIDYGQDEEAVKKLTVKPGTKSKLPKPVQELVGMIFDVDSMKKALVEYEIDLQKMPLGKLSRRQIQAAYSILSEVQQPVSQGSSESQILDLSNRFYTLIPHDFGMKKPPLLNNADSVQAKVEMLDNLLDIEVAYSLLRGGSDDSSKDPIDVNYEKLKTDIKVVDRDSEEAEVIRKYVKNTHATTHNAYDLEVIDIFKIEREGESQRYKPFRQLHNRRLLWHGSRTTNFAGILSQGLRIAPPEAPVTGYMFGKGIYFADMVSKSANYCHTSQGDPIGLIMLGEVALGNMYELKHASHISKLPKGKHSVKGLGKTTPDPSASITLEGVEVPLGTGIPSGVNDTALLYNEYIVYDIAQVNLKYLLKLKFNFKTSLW

Target: HUWE1 (mouse (endogenous in 32Dcl3)) (UniProt Q7TMY8)
Test: co-IP

“PARP1 (from UniProt P11103 1-1013) (enzyme)” was tested, and the binding was “binds”.
